# Source: the supplement of paper PMC12823440, “Inhibitors supercharge kinase turnover through native proteolytic circuits” (Nature, 2025)
# Chains of the proteins cited; added tags and fusions are not shown. Lines headed by an entry give the natural chain unless they say otherwise; changes in a name come on top.
# UniProt Q8IWU2: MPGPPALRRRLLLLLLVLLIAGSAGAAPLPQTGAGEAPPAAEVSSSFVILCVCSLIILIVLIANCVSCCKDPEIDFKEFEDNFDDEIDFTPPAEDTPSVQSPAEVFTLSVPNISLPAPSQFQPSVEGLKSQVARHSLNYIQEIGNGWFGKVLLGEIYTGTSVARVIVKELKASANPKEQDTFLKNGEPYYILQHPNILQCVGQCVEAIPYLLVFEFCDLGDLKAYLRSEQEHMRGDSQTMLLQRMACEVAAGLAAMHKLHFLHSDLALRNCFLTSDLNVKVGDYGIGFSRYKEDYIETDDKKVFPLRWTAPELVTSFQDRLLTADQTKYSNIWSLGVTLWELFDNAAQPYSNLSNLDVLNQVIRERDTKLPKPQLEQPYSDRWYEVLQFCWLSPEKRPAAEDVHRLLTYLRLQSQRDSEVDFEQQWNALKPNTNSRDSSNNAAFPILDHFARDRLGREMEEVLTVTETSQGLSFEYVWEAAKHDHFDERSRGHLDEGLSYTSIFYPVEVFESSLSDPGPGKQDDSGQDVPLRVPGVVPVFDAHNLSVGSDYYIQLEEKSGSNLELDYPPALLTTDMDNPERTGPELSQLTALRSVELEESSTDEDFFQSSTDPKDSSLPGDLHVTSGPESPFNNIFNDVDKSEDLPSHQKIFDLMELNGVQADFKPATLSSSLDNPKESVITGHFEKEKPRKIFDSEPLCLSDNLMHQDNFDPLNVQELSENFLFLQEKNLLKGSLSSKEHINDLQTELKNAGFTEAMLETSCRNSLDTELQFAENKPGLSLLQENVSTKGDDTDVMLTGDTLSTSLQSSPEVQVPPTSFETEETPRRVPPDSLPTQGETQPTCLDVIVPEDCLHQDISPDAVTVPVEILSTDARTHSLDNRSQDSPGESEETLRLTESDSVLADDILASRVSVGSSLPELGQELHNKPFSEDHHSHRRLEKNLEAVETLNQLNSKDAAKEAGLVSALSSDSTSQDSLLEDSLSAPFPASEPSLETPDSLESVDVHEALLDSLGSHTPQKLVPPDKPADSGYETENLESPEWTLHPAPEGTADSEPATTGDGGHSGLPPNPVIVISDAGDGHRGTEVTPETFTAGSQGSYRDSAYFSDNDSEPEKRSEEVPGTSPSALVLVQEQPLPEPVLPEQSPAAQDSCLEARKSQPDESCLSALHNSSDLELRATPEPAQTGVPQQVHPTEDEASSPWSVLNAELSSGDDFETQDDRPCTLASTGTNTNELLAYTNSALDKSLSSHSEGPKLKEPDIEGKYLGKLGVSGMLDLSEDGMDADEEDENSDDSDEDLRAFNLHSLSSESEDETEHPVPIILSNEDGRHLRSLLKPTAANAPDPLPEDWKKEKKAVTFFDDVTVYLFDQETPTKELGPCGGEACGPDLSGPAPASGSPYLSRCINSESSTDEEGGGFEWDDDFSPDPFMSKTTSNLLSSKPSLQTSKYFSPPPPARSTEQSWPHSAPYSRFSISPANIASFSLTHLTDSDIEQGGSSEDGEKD
# UniProt P07948: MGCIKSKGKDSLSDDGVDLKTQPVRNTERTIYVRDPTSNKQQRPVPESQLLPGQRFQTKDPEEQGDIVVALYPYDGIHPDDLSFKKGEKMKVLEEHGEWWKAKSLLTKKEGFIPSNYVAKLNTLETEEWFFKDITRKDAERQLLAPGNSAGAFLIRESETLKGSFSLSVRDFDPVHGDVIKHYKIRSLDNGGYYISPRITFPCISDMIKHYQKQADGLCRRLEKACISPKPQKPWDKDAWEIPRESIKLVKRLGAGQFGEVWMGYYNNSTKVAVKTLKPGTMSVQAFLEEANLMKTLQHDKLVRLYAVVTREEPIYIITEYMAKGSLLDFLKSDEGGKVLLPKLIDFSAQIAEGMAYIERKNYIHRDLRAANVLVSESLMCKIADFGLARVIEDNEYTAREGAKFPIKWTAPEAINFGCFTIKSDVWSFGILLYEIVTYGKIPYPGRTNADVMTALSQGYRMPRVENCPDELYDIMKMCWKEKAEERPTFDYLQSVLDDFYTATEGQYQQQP
# Counter-ions that a name gives are not always drawn. The list shows a part of the results. Hit calls seldom repeat between salt and free forms of one compound.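 Kinases, fused to nanoluciferase, were expressed in K562 cells; luminescence was measured every 4 h from 2 to 18 h as percent of control (DMSO = 100%, positive control = 0%). A time point is decreased if signal falls significantly (2 sigma). Hits were called by the authors by a rule that is not shown; the count of time points alone does not decide it.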
# Molecular target: LMTK2 (UniProt Q8IWU2)
# Test: kinase-Nluc reporter destabilization hit call (1 = scored as downregulated) (binary); higher = compound decreases kinase abundance
# Settings: 10 µM; K562; 2-18 h
row,Compound,kinase-Nluc reporter destabilization hit call
1,COc1nccc(-c2c(-c3ccc(F)cc3)ncn2C2CCNCC2)n1,inactive: 0
2,COc1ccc(-c2c[nH]c3nccc(-c4ccsc4)c23)c(OC)c1,inactive: 0
3,C[C@@]1(C(=O)Nc2ccc(F)nc2)CCCN1c1nc(Nc2cc(C3CC3)n[nH]2)c2cccn2n1,inactive: 0
4,Cc1ccc(Nc2nccc(N(C)c3ccc4c(C)n(C)nc4c3)n2)cc1S(N)(=O)=O [Pazopanib],inactive: 0
5,Cc1cc2c(F)c(Oc3ncnn4cc(OC[C@@H](C)O)c(C)c34)ccc2[nH]1 [Brivanib],inactive: 0
6,C=CC(=O)Nc1cc2c(Nc3ccc(F)c(Cl)c3)ncnc2cc1OCCCN1CCOCC1 [Canertinib],inactive: 0
7,Cc1ccc(Nc2nccc(N(C)c3ccc4c(C)n(C)nc4c3)n2)cc1S(N)(=O)=O [Pazopanib (Hydrochloride)],inactive: 0
8,CC(C)(C)n1nc(-c2ccc(Cl)cc2)c2c(N)ncnc21,inactive: 0
9,COc1cc2ncnc(Nc3ccc(F)c(Cl)c3)c2cc1OCCCN1CCOCC1 [Gefitinib],inactive: 0
10,O=C(Nc1cccc(Cl)c1)Nc1ncc(CCNc2ncnc3ccsc23)s1 [SNS-314 (mesylate)],inactive: 0
11,CC[C@@H]1C(=O)N(C)c2cnc(Nc3ccc(C(=O)NC4CCN(C)CC4)cc3OC)nc2N1C1CCCC1,inactive: 0
12,CC#CC(=O)N1CCC[C@H]1c1nc(-c2ccc(C(=O)Nc3ccccn3)cc2)c2c(N)nccn12 [Acalabrutinib],inactive: 0
13,O=S(=O)(c1cccc2c(O)nccc12)N1CCCNCC1 [Hydroxyfasudil (hydrochloride)],inactive: 0
14,O=C1Cc2c([nH]c3ccc(Br)cc23)-c2ccccc2N1 [Kenpaullone],inactive: 0
15,O=S(=O)(c1cccc2c(O)nccc12)N1CCCNCC1 [Hydroxyfasudil],inactive: 0
16,CC(C)N(CCC(=O)c1ccc2ccccc2c1)Cc1ccccc1,inactive: 0
17,Cc1cc2ncnn2cc1Nc1ncc2c(n1)n(C1CCOCC1)c(=O)n2C,inactive: 0
18,O=C(NCCCNc1nc(Nc2cccc(CN3CCOCC3)c2)ncc1C1CC1)C1CCC1,inactive: 0
19,CNC(=O)c1cc(Oc2ccc(NC(=O)Nc3ccc(Cl)c(C(F)(F)F)c3)cc2)ccn1 [Sorafenib (Tosylate)],inactive: 0

# Molecular target: LYN (UniProt P07948)
# Test: as above
# Settings: 2.5 µM; K562; 2-18 h
row,Compound,kinase-Nluc reporter destabilization hit call
1,Nc1nc(Nc2ccc(S(N)(=O)=O)cc2)nn1C(=O)c1c(F)cccc1F,inactive: 0
2,CCOc1cc2ncc(C#N)c(Nc3ccc(F)c(Cl)c3)c2cc1NC(=O)/C=C/CN(C)C [Pelitinib],inactive: 0
3,Nc1ncnc2c1c(-c1cnc3[nH]ccc3c1)nn2C1CCCC1,inactive: 0
4,CCN(CC)CCNC(=O)c1c(C)[nH]c(/C=C2\C(=O)Nc3ccc(F)cc32)c1C [Sunitinib],inactive: 0
5,C=CC(=O)Nc1cc2c(Nc3ccc(F)c(Cl)c3)ncnc2cc1OCCCN1CCOCC1 [Canertinib (dihydrochloride)],inactive: 0
6,Cc1[nH]c(/C=C2\C(=O)Nc3ccc(F)cc32)c(C)c1C(=O)NC[C@H](O)CN1CCOCC1,inactive: 0
7,Cc1cc(Nc2cc(N3CCN(C)CC3)nc(/C=C/c3ccccc3)n2)n[nH]1 [ENMD-2076 (Tartrate)],inactive: 0
8,O=C(Nc1cccc(Nc2nccc(Nc3cccc(C(F)(F)F)c3)n2)c1)C1CC1 [Aurora kinase inhibitor-3],inactive: 0
9,O=C1NCCc2[nH]c(-c3ccncc3)cc21,inactive: 0
10,COc1cc2/c(=N/c3ccc(Br)cc3F)nc[nH]c2cc1OCC1CCN(C)CC1 [Vandetanib],inactive: 0
11,CC(C)n1nc(-c2cc3cc(O)ccc3[nH]2)c2c(N)ncnc21 [Torkinib],inactive: 0
12,Cc1nc(Nc2ncc(C(=O)Nc3c(C)cccc3Cl)s2)cc(N2CCN(CCO)CC2)n1 [Dasatinib],inactive: 0
13,CNC(=O)c1cc(Oc2ccc(NC(=O)Nc3ccc(Cl)c(C(F)(F)F)c3)cc2)ccn1 [Sorafenib],inactive: 0
14,Cc1cc(Nc2cc(N3CCN(C)CC3)nc(/C=C/c3ccccc3)n2)n[nH]1,inactive: 0

# Reformatted: results already given.
row	Compound	kinase-Nluc reporter destabilization hit call
1	Nc1nc(Nc2ccc(S(N)(=O)=O)cc2)nn1C(=O)c1c(F)cccc1F	inactive: 0
2	CCOc1cc2ncc(C#N)c(Nc3ccc(F)c(Cl)c3)c2cc1NC(=O)/C=C/CN(C)C [Pelitinib]	inactive: 0
3	Nc1ncnc2c1c(-c1cnc3[nH]ccc3c1)nn2C1CCCC1	inactive: 0
4	CCN(CC)CCNC(=O)c1c(C)[nH]c(/C=C2\C(=O)Nc3ccc(F)cc32)c1C [Sunitinib]	inactive: 0
5	C=CC(=O)Nc1cc2c(Nc3ccc(F)c(Cl)c3)ncnc2cc1OCCCN1CCOCC1 [Canertinib (dihydrochloride)]	inactive: 0
6	Cc1[nH]c(/C=C2\C(=O)Nc3ccc(F)cc32)c(C)c1C(=O)NC[C@H](O)CN1CCOCC1	inactive: 0
7	Cc1cc(Nc2cc(N3CCN(C)CC3)nc(/C=C/c3ccccc3)n2)n[nH]1 [ENMD-2076 (Tartrate)]	inactive: 0

# Looked up above:
# Entry for C=CC(=O)Nc1cc2c(Nc3ccc(F)c(Cl)c3)ncnc2cc1OCCCN1CCOCC1 [Canertinib (dihydrochloride)] under kinase-Nluc reporter destabilization hit call: inactive: 0
# Entry for Cc1cc(Nc2cc(N3CCN(C)CC3)nc(/C=C/c3ccccc3)n2)n[nH]1 under kinase-Nluc reporter destabilization hit call: inactive: 0

# Same assay, conditions: 10 µM; K562; 2-18 h
row,Compound,kinase-Nluc reporter destabilization hit call
1,COc1nccc(-c2c(-c3ccc(F)cc3)ncn2C2CCNCC2)n1,inactive: 0
2,C[C@@]1(C(=O)Nc2ccc(F)nc2)CCCN1c1nc(Nc2cc(C3CC3)n[nH]2)c2cccn2n1,inactive: 0
3,Cc1ccc(Nc2nccc(N(C)c3ccc4c(C)n(C)nc4c3)n2)cc1S(N)(=O)=O [Pazopanib],inactive: 0
4,Cc1cc2c(F)c(Oc3ncnn4cc(OC[C@@H](C)O)c(C)c34)ccc2[nH]1 [Brivanib],inactive: 0
5,N#CC(=Cc1cc(Cl)cc(Cl)c1)c1cccnc1,inactive: 0
6,C=CC(=O)Nc1cc2c(Nc3ccc(F)c(Cl)c3)ncnc2cc1OCCCN1CCOCC1 [Canertinib],inactive: 0
7,Cc1ccc(Nc2nccc(N(C)c3ccc4c(C)n(C)nc4c3)n2)cc1S(N)(=O)=O [Pazopanib (Hydrochloride)],inactive: 0
8,CC(C)(C)n1nc(-c2ccc(Cl)cc2)c2c(N)ncnc21,inactive: 0
9,COc1cc2ncnc(Nc3ccc(F)c(Cl)c3)c2cc1OCCCN1CCOCC1 [Gefitinib],inactive: 0
10,O=C(Nc1cccc(Cl)c1)Nc1ncc(CCNc2ncnc3ccsc23)s1 [SNS-314 (mesylate)],inactive: 0
11,CC[C@@H]1C(=O)N(C)c2cnc(Nc3ccc(C(=O)NC4CCN(C)CC4)cc3OC)nc2N1C1CCCC1,inactive: 0
12,CC#CC(=O)N1CCC[C@H]1c1nc(-c2ccc(C(=O)Nc3ccccn3)cc2)c2c(N)nccn12 [Acalabrutinib],inactive: 0
13,O=S(=O)(c1cccc2c(O)nccc12)N1CCCNCC1 [Hydroxyfasudil (hydrochloride)],inactive: 0
14,O=C1Cc2c([nH]c3ccc(Br)cc23)-c2ccccc2N1 [Kenpaullone],inactive: 0
15,O=S(=O)(c1cccc2c(O)nccc12)N1CCCNCC1 [Hydroxyfasudil],inactive: 0
16,CC(C)N(CCC(=O)c1ccc2ccccc2c1)Cc1ccccc1,inactive: 0
17,CNC(=O)c1cc(Oc2ccc(NC(=O)Nc3ccc(Cl)c(C(F)(F)F)c3)cc2)ccn1 [Sorafenib (Tosylate)],inactive: 0
